Test results taken from article doi:10.1101/2023.04.27.538541.
Results are given in words; binding and its absence hold for the method and conditions named. Some binding calls cover weakened binding; strength is not graded here.

Chains of the proteins cited; added tags and fusions are not shown. Lines headed by an entry give the natural chain unless they say otherwise; changes in a name come on top.
UniProt Q6NZQ4: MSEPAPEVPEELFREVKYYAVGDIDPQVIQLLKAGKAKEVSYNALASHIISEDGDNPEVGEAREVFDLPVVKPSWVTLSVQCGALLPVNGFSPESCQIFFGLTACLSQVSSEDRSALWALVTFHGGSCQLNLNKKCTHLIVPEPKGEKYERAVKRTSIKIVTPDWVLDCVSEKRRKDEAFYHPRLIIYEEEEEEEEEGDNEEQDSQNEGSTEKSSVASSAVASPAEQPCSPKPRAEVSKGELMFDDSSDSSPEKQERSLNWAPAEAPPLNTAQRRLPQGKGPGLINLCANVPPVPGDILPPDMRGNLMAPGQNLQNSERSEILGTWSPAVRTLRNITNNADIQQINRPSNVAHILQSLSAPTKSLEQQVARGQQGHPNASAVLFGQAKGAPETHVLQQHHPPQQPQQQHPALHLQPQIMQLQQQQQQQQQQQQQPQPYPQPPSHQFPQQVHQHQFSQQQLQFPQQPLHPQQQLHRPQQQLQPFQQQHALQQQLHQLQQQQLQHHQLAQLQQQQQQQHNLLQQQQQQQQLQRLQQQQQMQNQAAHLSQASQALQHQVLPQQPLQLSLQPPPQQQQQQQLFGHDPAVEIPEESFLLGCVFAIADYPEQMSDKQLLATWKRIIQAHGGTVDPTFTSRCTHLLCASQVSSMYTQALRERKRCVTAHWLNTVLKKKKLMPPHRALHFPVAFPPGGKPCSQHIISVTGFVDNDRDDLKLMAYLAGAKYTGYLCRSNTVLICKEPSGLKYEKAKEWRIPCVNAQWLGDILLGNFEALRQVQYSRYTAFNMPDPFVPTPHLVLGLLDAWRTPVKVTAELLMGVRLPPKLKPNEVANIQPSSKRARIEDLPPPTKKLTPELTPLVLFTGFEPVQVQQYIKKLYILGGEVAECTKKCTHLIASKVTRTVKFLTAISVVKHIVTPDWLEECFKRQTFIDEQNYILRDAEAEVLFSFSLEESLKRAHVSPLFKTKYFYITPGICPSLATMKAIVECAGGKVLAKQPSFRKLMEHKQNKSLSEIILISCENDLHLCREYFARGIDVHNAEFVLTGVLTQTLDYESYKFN
UniProt A0A140LI88: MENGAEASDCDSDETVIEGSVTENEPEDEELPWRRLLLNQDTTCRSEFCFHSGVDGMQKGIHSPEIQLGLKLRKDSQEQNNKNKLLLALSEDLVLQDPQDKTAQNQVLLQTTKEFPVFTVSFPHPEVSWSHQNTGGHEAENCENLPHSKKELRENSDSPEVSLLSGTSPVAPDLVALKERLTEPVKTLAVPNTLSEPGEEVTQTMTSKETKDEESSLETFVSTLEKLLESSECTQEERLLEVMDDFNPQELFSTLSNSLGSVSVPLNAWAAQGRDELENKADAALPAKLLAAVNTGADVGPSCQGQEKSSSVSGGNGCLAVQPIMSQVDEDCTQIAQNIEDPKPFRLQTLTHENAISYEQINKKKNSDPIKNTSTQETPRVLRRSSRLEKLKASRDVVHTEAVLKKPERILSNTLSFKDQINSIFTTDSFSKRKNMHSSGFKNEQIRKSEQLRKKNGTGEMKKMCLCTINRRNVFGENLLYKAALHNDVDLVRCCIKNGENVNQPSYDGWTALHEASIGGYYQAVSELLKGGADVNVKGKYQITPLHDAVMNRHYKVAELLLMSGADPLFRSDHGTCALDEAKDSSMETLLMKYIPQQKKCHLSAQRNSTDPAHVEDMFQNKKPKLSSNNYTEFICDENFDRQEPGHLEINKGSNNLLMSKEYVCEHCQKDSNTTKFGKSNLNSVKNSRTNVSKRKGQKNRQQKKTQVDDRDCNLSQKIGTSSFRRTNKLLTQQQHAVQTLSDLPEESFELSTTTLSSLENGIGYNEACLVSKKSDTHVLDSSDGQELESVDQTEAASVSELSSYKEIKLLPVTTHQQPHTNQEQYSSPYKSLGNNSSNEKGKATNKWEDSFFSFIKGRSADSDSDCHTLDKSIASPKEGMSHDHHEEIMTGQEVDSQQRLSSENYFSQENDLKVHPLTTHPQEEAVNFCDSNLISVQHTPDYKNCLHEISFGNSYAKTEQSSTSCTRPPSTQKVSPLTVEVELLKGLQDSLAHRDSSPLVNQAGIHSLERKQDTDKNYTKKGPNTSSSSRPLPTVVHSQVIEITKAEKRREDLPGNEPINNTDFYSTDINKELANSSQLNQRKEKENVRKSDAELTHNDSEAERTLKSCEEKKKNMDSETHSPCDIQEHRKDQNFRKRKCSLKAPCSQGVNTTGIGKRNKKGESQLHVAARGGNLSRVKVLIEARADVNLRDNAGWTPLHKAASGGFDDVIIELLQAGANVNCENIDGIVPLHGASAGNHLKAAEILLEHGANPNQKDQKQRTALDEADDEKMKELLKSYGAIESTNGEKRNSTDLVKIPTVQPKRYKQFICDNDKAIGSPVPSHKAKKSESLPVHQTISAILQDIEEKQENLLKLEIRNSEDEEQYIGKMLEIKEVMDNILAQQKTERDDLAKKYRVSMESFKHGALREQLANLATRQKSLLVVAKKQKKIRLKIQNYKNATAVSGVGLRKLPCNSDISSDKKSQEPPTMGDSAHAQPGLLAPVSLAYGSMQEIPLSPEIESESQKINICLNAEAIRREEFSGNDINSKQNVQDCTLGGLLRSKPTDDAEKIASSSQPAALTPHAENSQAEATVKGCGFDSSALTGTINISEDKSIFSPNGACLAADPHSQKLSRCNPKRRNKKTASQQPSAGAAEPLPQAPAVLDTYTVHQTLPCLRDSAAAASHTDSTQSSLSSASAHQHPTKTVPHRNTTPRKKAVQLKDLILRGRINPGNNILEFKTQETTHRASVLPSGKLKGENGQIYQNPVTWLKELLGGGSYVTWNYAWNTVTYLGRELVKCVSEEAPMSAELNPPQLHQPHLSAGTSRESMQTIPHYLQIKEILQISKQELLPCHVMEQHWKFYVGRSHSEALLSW

Key:
Assay in all cases: two-hybrid; Gal4 AD and BD fusions (pGADT7, pGBKT7); mating of Y187 and Y2HGold strains; selection on SD-Trp/Leu/AbA (200 ng/ml Aureobasidin A; moderate stringency) or SD-Trp/Leu/Ade/His/AbA (high stringency)
MEI1 (mouse) = biological target: T1, MEI1 (mouse) (UniProt Q9D4I2)
T1 sequence: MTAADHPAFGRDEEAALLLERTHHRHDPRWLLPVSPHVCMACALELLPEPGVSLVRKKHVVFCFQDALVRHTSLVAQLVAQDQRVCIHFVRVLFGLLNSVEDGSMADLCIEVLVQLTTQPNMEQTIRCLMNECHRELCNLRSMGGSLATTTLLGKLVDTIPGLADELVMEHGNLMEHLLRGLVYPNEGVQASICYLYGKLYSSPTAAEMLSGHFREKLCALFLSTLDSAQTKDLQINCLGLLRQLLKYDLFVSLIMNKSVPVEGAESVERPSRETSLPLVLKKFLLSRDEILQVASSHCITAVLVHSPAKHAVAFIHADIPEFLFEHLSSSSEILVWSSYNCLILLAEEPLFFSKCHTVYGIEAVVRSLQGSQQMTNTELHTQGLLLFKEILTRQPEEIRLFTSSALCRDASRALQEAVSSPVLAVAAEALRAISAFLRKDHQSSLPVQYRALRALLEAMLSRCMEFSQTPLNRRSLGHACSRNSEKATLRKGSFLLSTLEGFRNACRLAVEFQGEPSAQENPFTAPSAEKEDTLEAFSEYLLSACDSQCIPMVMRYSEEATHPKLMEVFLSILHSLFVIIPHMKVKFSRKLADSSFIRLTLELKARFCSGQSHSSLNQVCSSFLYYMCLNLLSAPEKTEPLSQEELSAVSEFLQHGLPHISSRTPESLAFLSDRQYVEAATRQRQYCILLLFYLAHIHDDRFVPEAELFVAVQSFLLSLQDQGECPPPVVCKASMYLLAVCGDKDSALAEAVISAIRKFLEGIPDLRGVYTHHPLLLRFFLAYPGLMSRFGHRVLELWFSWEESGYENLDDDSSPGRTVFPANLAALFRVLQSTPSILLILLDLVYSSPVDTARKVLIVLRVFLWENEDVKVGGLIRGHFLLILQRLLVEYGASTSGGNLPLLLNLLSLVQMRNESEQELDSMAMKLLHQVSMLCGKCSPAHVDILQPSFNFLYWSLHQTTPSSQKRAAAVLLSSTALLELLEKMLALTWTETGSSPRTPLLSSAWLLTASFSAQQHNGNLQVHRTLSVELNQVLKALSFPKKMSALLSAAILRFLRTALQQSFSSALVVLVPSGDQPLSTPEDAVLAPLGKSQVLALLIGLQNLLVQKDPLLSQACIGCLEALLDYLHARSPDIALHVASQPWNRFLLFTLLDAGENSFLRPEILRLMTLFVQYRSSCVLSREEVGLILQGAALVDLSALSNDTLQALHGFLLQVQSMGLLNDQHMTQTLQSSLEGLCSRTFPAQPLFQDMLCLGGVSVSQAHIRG

ZMYM3 (mouse) = biological target: T2, ZMYM3 (mouse) (UniProt Q9JLM4)
T2 sequence: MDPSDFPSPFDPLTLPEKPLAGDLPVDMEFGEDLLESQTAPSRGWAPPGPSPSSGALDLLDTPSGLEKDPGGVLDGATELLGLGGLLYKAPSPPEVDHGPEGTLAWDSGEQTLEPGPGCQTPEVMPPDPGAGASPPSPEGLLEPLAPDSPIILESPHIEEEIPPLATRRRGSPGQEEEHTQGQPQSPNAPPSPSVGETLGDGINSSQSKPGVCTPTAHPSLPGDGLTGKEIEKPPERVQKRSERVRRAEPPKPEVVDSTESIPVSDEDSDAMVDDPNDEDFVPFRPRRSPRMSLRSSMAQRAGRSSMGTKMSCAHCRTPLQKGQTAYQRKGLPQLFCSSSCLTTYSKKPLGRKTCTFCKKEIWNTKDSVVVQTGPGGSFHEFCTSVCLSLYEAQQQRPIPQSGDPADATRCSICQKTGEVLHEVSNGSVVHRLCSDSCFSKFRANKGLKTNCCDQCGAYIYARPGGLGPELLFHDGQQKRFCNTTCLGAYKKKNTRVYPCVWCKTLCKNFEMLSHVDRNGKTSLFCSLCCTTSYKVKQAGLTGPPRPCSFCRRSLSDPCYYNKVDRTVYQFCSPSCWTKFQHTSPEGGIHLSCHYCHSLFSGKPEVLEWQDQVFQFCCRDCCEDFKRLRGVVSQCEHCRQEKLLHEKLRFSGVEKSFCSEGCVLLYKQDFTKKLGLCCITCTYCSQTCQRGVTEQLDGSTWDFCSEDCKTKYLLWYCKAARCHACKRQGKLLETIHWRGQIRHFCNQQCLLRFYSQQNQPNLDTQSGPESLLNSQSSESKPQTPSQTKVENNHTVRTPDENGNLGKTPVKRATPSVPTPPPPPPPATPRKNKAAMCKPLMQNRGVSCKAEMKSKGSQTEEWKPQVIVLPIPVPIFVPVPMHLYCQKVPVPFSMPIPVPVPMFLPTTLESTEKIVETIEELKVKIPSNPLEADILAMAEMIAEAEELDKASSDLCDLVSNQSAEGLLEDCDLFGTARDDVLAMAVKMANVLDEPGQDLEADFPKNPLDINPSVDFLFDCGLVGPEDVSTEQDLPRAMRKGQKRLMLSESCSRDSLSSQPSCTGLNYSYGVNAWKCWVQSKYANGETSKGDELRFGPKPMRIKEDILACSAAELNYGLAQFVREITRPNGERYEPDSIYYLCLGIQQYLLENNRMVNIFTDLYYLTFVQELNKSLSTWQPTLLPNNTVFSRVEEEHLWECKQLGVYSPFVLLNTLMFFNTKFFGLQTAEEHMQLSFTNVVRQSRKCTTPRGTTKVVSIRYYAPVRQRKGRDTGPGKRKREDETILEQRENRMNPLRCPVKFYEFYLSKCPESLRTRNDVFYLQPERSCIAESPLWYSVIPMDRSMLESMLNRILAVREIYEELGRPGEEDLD

PTIP (mouse) = PTIP (mouse) (UniProt Q6NZQ4)
[1] = biological target: T3, REC114N (N-terminal part of REC114) (mouse) (UniProt Q9CWH4)
T3 sequence: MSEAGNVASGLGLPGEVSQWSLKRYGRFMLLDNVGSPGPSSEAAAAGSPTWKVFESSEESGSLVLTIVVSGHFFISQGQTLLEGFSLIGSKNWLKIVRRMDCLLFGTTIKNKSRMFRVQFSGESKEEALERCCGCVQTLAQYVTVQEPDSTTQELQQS

REC114 1-145 (mouse) = biological target: T4, REC114 1-145 (mouse) (UniProt Q9CWH4)
T4 sequence: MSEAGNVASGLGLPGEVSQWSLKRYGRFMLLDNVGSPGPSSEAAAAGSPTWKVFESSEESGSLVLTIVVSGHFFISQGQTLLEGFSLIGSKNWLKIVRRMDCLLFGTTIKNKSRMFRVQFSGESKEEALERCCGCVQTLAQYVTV

Row | binding (MEI1 (mouse)) | binding (ZMYM3 (mouse)) | binding (PTIP (mouse)) | binding [1] | binding (REC114 1-145 (mouse)) | Substance
1 | binds | binds | binds | binds |  | ANKRD31 (Ankyrin Repeat Domain Containing 31), full-length wild type (from UniProt A0A140LI88 1-1857)
2 |  |  |  |  | binds | ANKRD31C (ANKRD31 residues 1808-1857) (from UniProt A0A140LI88 1808-1857) (domain or fragment)
3 | binds | binds | binds | binds |  | ANKRD31-EA (full-length ANKRD31 with E1831A) (from UniProt A0A140LI88 1-1857)
